Source: PubChem BioAssay AID540276 (National Center for Advancing Translational Sciences (NCATS), 2011)
Several values for one entry are separate records, joined by “and”; a condition that tells them apart may be missing. Identical values can stand only once. Screen size: about 300,000 compounds; about 5,400 (1.8%) were called active. The inconclusive results got no clear call from the source; some entries with a clear call stand among them for comparison. Calls follow the shape of the full dose curve; tested in HEK293 cells. Potencies of inconclusive entries are doubtful fits and often do not repeat.

Test: qHTS for inhibitors of binding or entry into cells for Marburg Virus
Conditions: Marburg virus pseudotyped entry inhibition, cell reporter; activity change, negative = inhibition: at 37.8 µM (top of the series) unless noted
% is scaled to controls: 0 for no effect and ±100 for the full control effect; potency is read from the fitted curve at half-maximal effect.

Compound | Potency | activity change, negative = inhibition
O=C(Nc1ccc(Br)cc1)c1ccco1 | inconclusive: 2.59 µM [activator, full curve] | –
Cc1ccc(-c2cc(C(F)(F)F)c(C#N)c(SCC(=O)O)n2)cc1 | inconclusive: 11.2 µM [activator, partial curve, poor fit] | –
COCCN1Cc2cccc(C(=O)NC(C)c3cccs3)c2C1=O (configuration not stated) | inconclusive: 23.1 µM [activator, single point] | –
CC1CCCC(NCC(O)COC(c2ccc(F)cc2)c2ccc(F)cc2)C1C (configuration not stated) | inconclusive: 10 µM [inhibitor, partial curve, poor fit] | –
O=C(NN1C(=O)/C(=C/c2cccs2)SC1=S)c1ccncc1 | inconclusive: 12.6 µM [activator, single point] | –
Nc1c(C(=O)c2ccccc2)sc2snc(SCC(=O)c3ccccc3)c12 | inconclusive: 5.62 µM [activator, partial curve, poor fit] | –
S=C(Nc1ccccc1Cl)N(CCCN1CCOCC1)Cc1ccco1 | – | inactive: 0.438%
CCCc1[nH]nc2c1[C@@H](c1cccc(OC)c1)C(C#N)=C(N)O2 | – | inactive: 4.42%
Cc1cccc(OCC(=O)NCc2ccccc2)c1 | – | inactive: 13.1%
c1ccc(C(NCc2cccnc2)(c2ccccc2)c2ccccc2)cc1 | inactive | –
CCOC(=O)Nc1ccc2c(c1)N(C(=O)CCN(CC)CC)c1ccccc1S2=O (configuration not stated) | inconclusive: 17.8 µM [inhibitor, partial curve, poor fit] | –
Cc1ccc(NC(=O)COC(=O)C2CC2(Cl)Cl)cc1C (configuration not stated) | – | inactive: 20.2% [at 46.1 µM]
COc1ccc(/C=C/C(=O)Nc2nonc2NC(C)=O)cc1 | inconclusive: 31.6 µM [activator, single point] | –
CCOC(=O)c1cc(C)sc1/N=C/C1C(=O)CCCC1=O | – | inactive: -11.7%
O=C(NCC(=O)N(CCc1ccccc1)C(C(=O)NC1CCCC1)c1cccnc1)c1ccco1 (configuration not stated) | – | inactive: -4.25%
Nc1ccn(C2OC(COP(=O)(O)O)C(O)C2O)c(=O)n1 (configuration not stated) | inconclusive: 11.2 µM [inhibitor, partial curve, poor fit] | –
Clc1nnc(N2CCCCC2)c2ccccc12 | – | inactive: 3.88% [at 46.1 µM]
CC(=O)N1CCOc2ccc(S(=O)(=O)N3CCC(C(=O)Nc4cc(C)ccc4C)CC3)cc21 | – | inactive: -0.925% [at 46.1 µM]
O=C(NCc1ccco1)c1ccc2c(c1)N(Cc1ccc(Cl)cc1)CCS2 | inconclusive: 11.2 µM [inhibitor, partial curve, poor fit] | –
COc1cc(Nc2c3c(nc4ccccc24)CCC3)cc(OC)c1OC | inconclusive: 0.794 µM [inhibitor, full curve, poor fit] | –
Nc1ccc(C(=O)OCC(=O)N2CCOCC2)cc1[N+](=O)[O-] | – | inactive: 4.03%
Cc1cccc(N2CCN(Cc3nnc(-c4ccc5c(c4)OCO5)o3)CC2)c1C | inconclusive: 35.5 µM [activator, single point] | –
Cc1cccc(C#Cc2ccccc2)n1 | inconclusive: 8.2 µM [activator, partial curve] and inconclusive: 5.62 µM [activator, partial curve, poor fit] | –

Compound | Potency | activity change, negative = inhibition
CCN(CC)CC(=O)Nc1sc(C)cc1C(=O)c1ccccc1 | inconclusive: 35.5 µM [inhibitor, single point] | –
COc1ccc(/C=C2\CCCC3C2=NN(C(=O)COC(=O)CNC(=O)c2ccccc2)C3c2ccc(OC)cc2)cc1 (configuration not stated) | inconclusive: 10.3 µM [inhibitor, partial curve] | –
O=C(C1CC1)N1c2ccccc2Sc2ccccc21 | inconclusive: 12.6 µM [inhibitor, partial curve, poor fit] | –
COc1ccc(C(=O)CSc2ccc3nnc(-c4cccnc4)n3n2)cc1 | inconclusive: 35.5 µM [activator, single point] | –
COC(=O)c1ccccc1S(=O)(=O)N1Cc2cc([N+](=O)[O-])ccc2Oc2ccccc21 | inconclusive: 35.5 µM [inhibitor, single point] | –
C/C(=N/NC(=O)c1nnn(-c2nonc2N)c1-c1ccccc1)c1ccc2c(c1)OCO2 | – | inactive: -3.99% [at 46.1 µM]
N#Cc1ccc(C(=O)NCC(c2ccco2)N2CCCC2)cc1 (configuration not stated) | inconclusive: 15.8 µM [activator, single point] | –
CC(C)c1nc(SCC(=O)Nc2ccc3c(c2)OCCO3)n[nH]1 | inconclusive: 2 µM [activator, full curve] | –
OC(c1ccccc1)(c1ccccc1)C1CCN(C(=S)NCCc2ccccc2)CC1 | inconclusive: 14.1 µM [inhibitor, partial curve, poor fit] | –
CCCCCCCCNC(=O)c1cnccn1 | inconclusive: 29.1 µM [activator, single point] | –
CCCCNC(=O)CSc1cc(=O)n(C)c2ccccc12 | – | inactive: -7.7%
COc1ccc(NC(=O)COC(=O)Cn2cnc3ccccc32)cc1 | – | inactive: 1.03%
Cc1ccc(CSc2ncc(Cl)c(C(=O)Nc3sc4c(c3C(N)=O)CCCC4)n2)cc1 | inconclusive: 31.6 µM [inhibitor, single point] | –
C=CCN1C(=O)C2C(C(=O)NC3CCCC3)C3(C)C=CC2(O3)C1C(=O)NC1CCCC1 (configuration not stated) | inconclusive: 10 µM [inhibitor, partial curve] | –
CSCCC(NS(=O)(=O)c1ccc(C)cc1)C(=O)NC1CCCCC1 (configuration not stated) | inconclusive: 35.5 µM [inhibitor, single point] | –
COC(=O)C1=C(C)N(Cc2cccnc2)C(=O)C1 | inconclusive: 0.116 µM [inhibitor, full curve, poor fit] | –
CCCn1c(N)c(N2CCCCC2)c(=O)n(CC(=O)Nc2ccc(C(C)=O)cc2)c1=O | – | inactive: 12.9%
COc1ccc(N(C(=O)c2snc(C(N)=O)c2N)C(C(=O)NCc2ccc(F)cc2)c2ccc(O)cc2)cc1 (configuration not stated) | inconclusive: 17.8 µM [inhibitor, partial curve, poor fit] | –
CC(=O)c1cc(Cl)ccc1OCc1cccc(S(=O)(=O)N2CCOCC2)c1 | inconclusive: 35.5 µM [inhibitor, single point] | –
Cc1ccc(Cn2ncc(Cl)c(Cl)c2=O)cc1 | inconclusive: 9.2 µM [inhibitor, single point] | –
CCOc1cccc(C(=O)Nc2ccc3oc(Cc4ccc(Cl)cc4)nc3c2)c1 | inconclusive: 17.8 µM [inhibitor, single point] | –
CCn1ccc(C(=O)Nc2ccc(S(=O)(=O)Nc3ccccc3OC)cc2)n1 | – | inactive: -20.7%
COc1ccc(CC(=O)NCc2ccccc2)cc1OC | inconclusive: 11.2 µM [inhibitor, partial curve, poor fit] | –

Compound | Potency | activity change, negative = inhibition
N=c1c(C(=O)NCCN2CCOCC2)cc2c(=O)n3ccccc3nc2n1CCCN1CCOCC1 | inconclusive: 1.78 µM [inhibitor, partial curve, poor fit] | –
Cc1ccc(N2C(=O)c3cccc4cccc(c34)C2=O)cc1 | inconclusive: 0.562 µM [inhibitor, full curve, poor fit] | –
O=C(CCNC(=O)c1ccccc1Cl)NN=Cc1ccccc1[N+](=O)[O-] | – | inactive: 26.4%
Cc1cc(C)n(Cc2ccc(C(=O)Nc3ccc(Br)cc3C)o2)n1 | inconclusive: 1.78 µM [activator, full curve, poor fit] | –
COC(=O)c1sc2ncccc2c1OCc1ccc(Cl)cc1 | active: 8.2 µM | –
N[C@H](C(=O)O)c1cc(O)cc(O)c1 | inconclusive: 0.141 µM [activator, full curve, poor fit] | –
O=C(O)/C(=C\c1cccc(F)c1)c1ccc(S(=O)(=O)N2CCCC2)s1 | inconclusive: 11.2 µM [activator, single point] | –
COc1ccc(-c2csc(NC(=O)CSCC(=O)Nc3cc(C)on3)n2)cc1OC | inconclusive: 8.91 µM [inhibitor, partial curve, poor fit] | –
O=C(NCC1CCCO1)C(C(=O)c1ccccc1)n1cc(Cl)ccc1=O (configuration not stated) | inconclusive: 29.1 µM [activator, single point] | –
CCOC(=O)C(C#N)C(Cc1ccccc1)c1ccco1 (configuration not stated) | – | inactive: 1.47%
Cc1nc(-c2cc(-c3nc(-c4ccc(C(C)(C)C)cc4)no3)no2)cs1 | inconclusive: 20 µM [activator, single point] | –
CCn1c2ccccc2c2cnc(N=CN(C)C)c(C#N)c21 | inconclusive: 1.41 µM [inhibitor, partial curve, poor fit] | –
Cc1ccc(NC(=O)COc2ccc(C(=O)NCCc3ccccc3)cc2)cc1 | – | inactive: -22.8%
Cn1cc(Br)c(C(=O)Nc2c(F)c(F)c(F)c(F)c2F)n1 | inconclusive: 11.2 µM [activator, partial curve] | –
O=C1c2cccc3c(Nc4ccccc4Cl)c([N+](=O)[O-])cc(c23)C(=O)N1CCO | inconclusive: 20.6 µM [inhibitor, partial curve] | –
COc1cccc(-c2cc(C(F)(F)F)n3ncc(C(=O)NCC4CCCO4)c3n2)c1 (configuration not stated) | inconclusive: 32.6 µM [inhibitor, partial curve, poor fit] | –
O=C(Nc1cc(Cl)cc(Cl)c1)c1ccc(Cn2c(=O)[nH]c3ccsc3c2=O)cc1 | inconclusive: 29.1 µM [activator, single point] | –
Cc1cc2cc(CCNC(=O)c3ccc(S(=O)(=O)N4CCCC4)cc3)c(=O)[nH]c2cc1C | inconclusive: 1.26 µM [inhibitor, partial curve, poor fit] | –
CCOC(=O)c1cc(NC(=O)Nc2cc(C)ccn2)c(C)nc1C | – | inactive: -19.5% [at 46.1 µM]
CC(C)CCn1c(SCC(=O)N2CC(=O)Nc3ccccc32)nc2scc(-c3cccs3)c2c1=O | – | inactive: -17.1%
O=C(COc1ccccc1)Nc1cc(S(=O)(=O)N2CCOCC2)ccc1N1CCCC1 | inconclusive: 0.631 µM [inhibitor, single point] | –
